Laboratory results as given in article PMC11286185.
Results are given in words; binding and its absence hold for the method and conditions named. In cells and extracts the contact can be indirect. Here binding means that the protein was enriched with, or labelled near, the bait; the list need not be complete.

Target: PCDH10-HAV5 (epitope-tagged protocadherin10 from the Pcdh10-HAV5 knock-in mouse line) (mouse)
Assay: affinity purification with mass spectrometry; Co-IP with Pierce anti-HA magnetic beads from lightly fixed (0.1% PFA) P7 Pcdh10-HAV5 telencephalon lysate (250 mM NaCl, 50 mM Tris pH 7.5, 0.05% n-dodecyl-β-D-maltoside); wild-type pups as control; hits chosen by HAV5/wild-type ratio >5; n = 5

binding: binds
B1: ERC2 (protein, UniProt Q6PH08 1-957)
chain: MYGSARTISNLEGSPSRSPRLPRSPRLGHRRTSSGGGGGTGKTLSMENIQSLNAAYATSGPMYLSDHEGVASTTYPKGTMTLGRATNRAVYGGRVTAMGSSPNIASAGLSHTDVLSYTDQHGGLSGSSHHHHHQVPSMLRQVRDSTMLDLQAQLKELQRENDLLRKELDIKDSKLGSSMNSIKTFWSPELKKERVLRKEEAARMSVLKEQMRVSHEENQHLQLTIQALQDELRTQRDLNHLLQQESGNRGAEHFTIELTEENFRRLQAEHDRQAKELFLLRKTLEEMELRIETQKQTLNARDESIKKLLEMLQSKGLPSKSLEDDNERTRRMAEAESQVSHLEVILDQKEKENIHLREELHRRSQLQPEPAKTKALQTVIEMKDTKIASLERNIRDLEDEVQMLKANGVLNTEDREEEIKQIEVYKSHSKFMKTKIDQLKQELSKKESELLALQTKLETLSNQNSDCKQHIEVLKESLTAKEQRAAILQTEVDALRLRLEEKESFLNKKTKQLQDLTEEKGTLAGEIRDMKDMLEVKERKINVLQKKIENLQEQLRDKDKQLTNLKDRVKSLQTDSSNTDTALATLEEALSEKERIIERLKEQRERDDRERLEEIESFRKENKDLKEKVNALQAELTEKESSLIDLKEHASSLASAGLKRDSKLKSLEIAIEQKKEECNKLEAQLKKAHNIEDDSRMNPEFADRLKQLDKEASYYRDECGKAQAEVDRLLEILKEVENEKNDKDKKIAELESLTLRHMKDQNKKVANLKYNQQLEKKKNAQLLEEVRRREDSMVDNSQHLQIEELMNALEKTRQELDATKARLASTQQSLAEKEAHLANLRIERRKQLEEILEMKQEALLAAISEKDANIALLELSASKKKKTQEEVMALKREKDRLVHQLKQQTQNRMKLMADNYDEDHHHYHHHHHHHHHRSPGRSQHSNHRPSPDQDDEEGIWA
